In publication PMC9132907 one finds binding data, which are given here for two substances.

Protein sequences, listed by entry. Tags and fused reporters are not part of them.
UniProt O15205: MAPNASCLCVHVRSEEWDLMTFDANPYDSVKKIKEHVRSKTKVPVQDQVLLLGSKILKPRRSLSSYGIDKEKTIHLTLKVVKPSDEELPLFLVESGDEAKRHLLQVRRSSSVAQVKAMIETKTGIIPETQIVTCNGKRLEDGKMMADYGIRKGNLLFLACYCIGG

The target of test [1] is T1, Forkhead box M1 (FOXM1), endogenous (human (endogenous in PANC-1 and BxPC-3)) (UniProt Q08050).
T1 sequence: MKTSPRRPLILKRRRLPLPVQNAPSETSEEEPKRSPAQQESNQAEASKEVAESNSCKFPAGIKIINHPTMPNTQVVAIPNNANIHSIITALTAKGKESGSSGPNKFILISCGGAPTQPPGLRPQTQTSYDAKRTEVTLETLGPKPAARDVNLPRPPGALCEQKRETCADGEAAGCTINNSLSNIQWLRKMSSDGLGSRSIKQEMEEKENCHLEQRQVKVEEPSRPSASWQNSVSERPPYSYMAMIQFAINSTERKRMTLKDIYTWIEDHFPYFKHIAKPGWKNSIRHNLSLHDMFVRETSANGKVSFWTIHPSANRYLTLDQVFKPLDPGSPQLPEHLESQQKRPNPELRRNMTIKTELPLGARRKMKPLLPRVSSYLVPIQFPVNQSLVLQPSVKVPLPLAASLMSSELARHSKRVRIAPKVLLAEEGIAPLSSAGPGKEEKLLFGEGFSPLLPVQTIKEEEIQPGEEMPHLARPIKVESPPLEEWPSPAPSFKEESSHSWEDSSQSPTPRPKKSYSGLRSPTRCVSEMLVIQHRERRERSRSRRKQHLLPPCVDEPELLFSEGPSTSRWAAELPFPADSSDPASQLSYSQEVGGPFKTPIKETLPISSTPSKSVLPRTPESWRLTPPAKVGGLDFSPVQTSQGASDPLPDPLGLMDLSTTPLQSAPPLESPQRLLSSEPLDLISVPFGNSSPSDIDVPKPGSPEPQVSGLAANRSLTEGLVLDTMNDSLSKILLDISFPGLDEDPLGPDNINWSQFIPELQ
Description: co-IP; PANC-1 and BxPC-3 cells transfected with different amounts of HA-FAT10 plasmid; FAT10 or Ub bound to FOXM1 detected by western blot. For orientation: A western blot detects proteins with antibodies after separation by electrophoresis.

Test [2] has as its target T1, Forkhead box M1 (FOXM1), endogenous (human (endogenous in PANC-1 and BxPC-3)). Nature of the test: co-IP; endogenous proteins in RIPA lysates of PANC-1 and BxPC-3 cells, protein A/G agarose, 4 °C, western blot; also after MG132 (10 μM) with shFAT10 or HA-FAT10 transfected.

These are yes or no findings as the source states them, for the method shown. Binding seen in cells or lysates may run through a third protein. Some results given as binding are weak or reduced against the parent protein; the word gives no strength.

For HA-FAT10 (from UniProt O15205 1-165), the binding entry in test [1] is recorded as “binds”.

“Human leukocyte antigen F-associated transcript10 (FAT10), endogenous (from UniProt O15205 1-165)”: the binding result in test [2] is listed as “binds”.
